Laboratory results: PubChem BioAssay AID2685 (National Center for Advancing Translational Sciences (NCATS), 2010)
In all, about 320,000 compounds went through this assay and about 2,100 (0.66%) were called active. Inconclusive means that the source gave no clear call. Such entries were picked first, then a sample of the others. The call rests on the fitted dose curve; in most records, active means well fitted inhibition curve with a large enough effect in the signal ratio, with a control signal flat (not every such curve was filed as active); inconclusive means small, poorly fitted or top-dose-only effect, or effect the other way, or a change in a side signal; inactive means flat fitted curve, though single readings scatter; the % refers to the signal ratio. Potencies beside an inconclusive call are fits to weak or partial responses and may not hold up.

experiment: qHTS Assay for Lipid Storage Modulators in Drosophila S3 Cells; conditions: BODIPY lipid droplet fluorescence, 18-24 h, cells fed with added oleic acid; lipid storage change, negative = inhibition: at 46.1 µM (top of the series) unless noted
Summary of the method: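 Drosophila S3 cells loaded with oleic acid (400 uM, as added) and compounds at several concentrations; lipid droplets imaged by 488-nm laser-scanning cytometry, 500–530 nm intensity and object ratio to cell channel. Percent activity normalized to 20 uM Triacsin C.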
On the % scale 0 is the no-effect control and ±100 the full control effect; potency means the concentration at half of the fitted maximal effect.

Potency, active:
CC(C(=O)NC1=NCCS1)N1C(=O)C2CC=CCC2C1=O (stereo not drawn) 29.1 µM

Potency, inconclusive:
COc1ccc(CNS(=O)(=O)c2cn(C)c(=O)n(C)c2=O)cc1 1.3 µM [falling, full curve, poor fit], O=C(CN1CCCCC1)c1c[nH]c2ccccc12 4.61 µM [activator, partial curve, poor fit], Cc1ccccc1Nc1nc(N)nc(COC(=O)c2cccc(S(=O)(=O)N(C)c3ccccc3)c2)n1 4.61 µM [activator, partial curve], O=C(/C=C/c1ccccc1[N+](=O)[O-])OCC(=O)N1CCCC1 6.51 µM [activator, single point], FC(F)(F)c1nnc(Nc2ccc(Cl)cc2)s1 1.3 µM [activator, full curve], COc1ccc(C(=O)NCc2nnc(SCC(=O)Nc3nc4ccc(C)cc4s3)o2)cc1OC 1.03 µM [falling, partial curve], CC(C)CC(=O)NN(C)c1nc(-c2ccccc2)nnc1C(F)(F)F 20.6 µM [activator, partial curve], Cn1c(N)c(C(=O)COC(=O)C2(c3ccc(Cl)cc3)CCCC2)c(=O)n(C)c1=O 0.231 µM [activator, full curve, poor fit], CCCCn1nc(NC(=O)CC(C)C)c2cc3cc(OC)ccc3nc21 29.1 µM [falling, single point], Cc1nc2ccc(S(=O)(=O)NCC(=O)NCc3ccc(Cl)cc3)cc2s1 18.4 µM [activator, partial curve], CN(C)[C@H]1N(C(=O)c2ccc(Br)cc2)N=C2c3ccccc3S(=O)(=O)N21 0.58 µM [rising, full curve], CCN(CC(=O)Nc1ccccc1OC)C(=O)c1ccccc1Sc1ccccc1C#N 29.1 µM [falling, single point], Oc1ccccc1OCCOc1ccccc1OCCOc1ccccc1O 2.91 µM [falling, single point], CC1CCN(C(=O)COC(=O)Cc2c[nH]c3ccccc23)CC1 0.0046 µM [activator, full curve], CC(C)(C)c1nnc(NC(=O)CCS(=O)(=O)Cc2ccccc2)s1 6.51 µM [activator, single point], CC(=O)c1sc(N/N=C\c2ccc(N(C)C)cc2)nc1C 20.6 µM [falling, partial curve, poor fit], COc1cccc(N2CCN(Cc3ccsc3)CC2)c1 1.84 µM [falling, partial curve], CN(CC(=O)Nc1ccc(Cl)c(C(F)(F)F)c1)C(=O)Cc1c[nH]c2ccccc12 3.66 µM [activator, partial curve, poor fit]

Lipid storage change, negative = inhibition, inconclusive:
COc1ccc(S(=O)(=O)Nc2ccccc2-c2nnn(CC(=O)Nc3ccccc3OC)n2)cc1 29.8%, CC(C)C1CC(CCNCc2ccc3c(c2)OCO3)(c2ccccc2)CCO1 (stereo not drawn) 14.8%, COc1ccc(OCc2cc(-c3ccc(Cl)cc3)no2)cc1 -35.6%, O=C(O)c1cc(NS(=O)(=O)c2cccs2)cc(NS(=O)(=O)c2cccs2)c1 15%, O=C(O)C1=C(Nc2ccccc2)OCC1=O -23.8%, O=C(c1ccco1)N1CCN(Cc2cccc([N+](=O)[O-])c2)CC1 3.98%, Cc1ccccc1CCNC(=O)C1CC(O)CN1C(=O)Nc1ccccc1 (stereo not drawn) 9.95%, Cc1ccc(S(=O)(=O)N(C)C)cc1NC(=O)/C=C/c1cccs1 21.8%, COc1ccccc1NC(=O)CSc1nnc(Cc2ccccc2)o1 20.3%, Fc1cccc(F)c1/C=N/NC(=S)Nc1cccnc1 17.5%, CCOC(=O)C1=C(C)Nc2sc(C(=O)c3ccc(F)cc3)c(N)c2C1c1ccc(C(=O)OC)cc1 (stereo not drawn) 7.11%, N#C/C(=C(/O)c1ccc(F)cc1)c1nc2ccccc2s1 13.4%, CCOc1ccc(S(=O)(=O)N(CC)CC(=O)NC2CC2)cc1 -6.86%, CCCCn1c(N)c(N(CC(C)C)C(=O)C2CCN(S(=O)(=O)c3ccccc3)CC2)c(=O)[nH]c1=O 7.03%, Cn1cnnc1SCC(=O)NC1CCCc2ccccc21 (stereo not drawn) -9.7%, CC(C)CN(C(=O)CSc1nnnn1C)C1CCS(=O)(=O)C1 (stereo not drawn) -26%, COc1ccccc1CCNC(=O)c1csc2c1CCCC2 47.2%, O=[N+]([O-])c1ccccc1OCCCOc1cccc2cccnc12 -24.2%, CCc1nnc(N/N=C/c2c(Cl)cccc2Cl)n1N -30.8%, CCOc1ccc(C(=O)NCC(=O)OCc2cc([N+](=O)[O-])cc3c2OCOC3)cc1OCC 22.8%, Cc1c(CC(=O)N2CCN(C(=O)C3COc4ccccc4O3)CC2)c(=O)oc2c(C)c(O)ccc12 (stereo not drawn) -14.7%, COC(=O)c1sc(NC(=S)NC(=O)c2cccc(C)c2)nc1C 16.7%, Cn1c(SCc2nc3ccccc3s2)nnc1-c1cccs1 66%, Cc1ccc(-n2c([C@@H]3C[C@H]3c3ccccc3)n[nH]c2=S)cc1 -1.2%, CN(C)c1nc(C(=O)O)nc(N2CCOCC2)n1 17.4%, Cc1cc([N+](=O)[O-])nn1CC(=O)NCc1ccccc1 52.2%, COc1ccccc1N1CCN(C(=O)c2ccncc2)CC1 -5.44%, O=C(C1CCC1)N1CCN(Cc2ccccc2)CC1 -0.56%, C=CC1C(N2CCOCC2)C(C)(C)S1(=O)=O (stereo not drawn) -7.97%
